# Reference: the M2OR odorant receptor database
# The list shows a part of the results. The calls were merged from several studies; some rest on single wells.
# Tested on: T1, OR1A1
# T1 sequence (whole entry): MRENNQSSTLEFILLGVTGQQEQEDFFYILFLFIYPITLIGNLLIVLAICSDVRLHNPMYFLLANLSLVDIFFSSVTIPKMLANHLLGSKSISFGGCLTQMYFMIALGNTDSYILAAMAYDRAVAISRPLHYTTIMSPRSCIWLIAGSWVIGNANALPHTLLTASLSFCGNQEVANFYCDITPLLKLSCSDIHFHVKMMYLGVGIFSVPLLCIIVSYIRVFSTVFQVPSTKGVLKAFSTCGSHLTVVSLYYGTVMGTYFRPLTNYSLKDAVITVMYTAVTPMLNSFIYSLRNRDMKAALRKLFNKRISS
# Settings: stereoisomer not certain
# Procedure, shortened: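 Assay methods differ from source to source, frequently being transient luciferase assays in mammalian cell lines. For each receptor–molecule pair, the label responsive (active) applies when the original authors judged the measured signal statistically different from baseline, and non-responsive (inactive) applies otherwise.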
row,SMILES,odorant receptor agonist call
1,CC12C=CCC1C1CCC3=CC(=O)CCC3(C)C1CC2 (stereo not drawn),inactive
2,CC1COCc2cc3c(cc21)C(C)(C)C(C)C3(C)C (stereo not drawn),active
3,COC(=O)c1ccccc1O,inactive
4,O=C1CCCCCCCCCCCCCCO1,inactive
5,CC(=O)OC(C)(C)C1CC=C(C)CC1 (stereo not drawn),inactive
6,COc1cc(C)ccc1O,inactive
7,CCCCCCOC(=O)CCC,inactive
8,C=CCc1ccc(OC)c(OC)c1,inactive
9,O=C1CCCCCCCCCCCC(=O)OCCO1,inactive
10,CC(C)CC(=O)O,inactive
11,CC(C)CCC(=O)O,inactive
12,CC12CCC(CC1)C(C)(C)O2,inactive
13,CC(C)C=O,inactive
14,CCCCCC(C)=O,inactive
15,CCCC(=O)O,inactive
16,C=CCc1ccc(OC(C)=O)c(OC)c1,inactive
17,COc1cc(C=O)ccc1O,inactive
18,CC(=O)C(C)=O,inactive
19,CCC=CCCO,inactive
20,CC1CCC(C(C)C)C(O)C1 (stereo not drawn),active
21,CC12CCC(C1)C(C)(C)C2=O (stereo not drawn),inactive
22,CC(=O)OC1CC2CCC1(C)C2(C)C (stereo not drawn),inactive
23,CC1=CCC(C(C)(C)O)CC1 (stereo not drawn),active

# Pulled by structure from the entries so far, two records:
row,SMILES,odorant receptor agonist call
14,CCCCCC(C)=O,inactive
13,CC(C)C=O,inactive
